Data as given in PubChem BioAssay AID1224830 (NIAID, 2016)
Test: 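Regulators of TLR4 signalling towards TNF-alpha in macrophage-like cells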 (primary screen). System: human THP-1 monocytic leukaemia cells, TNF dual-luciferase reporter clone, PMA-differentiated to macrophage-like cells. Reagents: siRNA pool against human genes, 50 nM. Timing: LPS for 4 h, given about 3 days after siRNA transfection. Treatment: bacterial LPS (TLR4 ligand), 10 ng/ml. Measurement: 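TNF firefly reporter luminescence divided by renilla, normalised to the plate median, then turned into a robust z-score for each replicate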. Reading the numbers: TNF reporter robust z-score: higher = stronger TNF reporter response to LPS. Call rule: 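a well is active when its z-score exceeds 2.8 or falls below -1.5; control wells carry no call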.
Shown is one part, drawn at random, of about 18,000 deposited reagents. About 2,900 of them (16%) count as active. 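Calls are made per well; low scores hint the gene aids the LPS response, high scores that it dampens it.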 Unmarked entries are inactive. Repeated entries: four replicate wells of each siRNA pool.

| target | PubChem SID | TNF reporter robust z-score |
| --- | --- | --- |
| ZNF804B | SID315463181 | -0.33 |
| ZNF804B | SID315463181 | 0.8 |
| ZNF804B | SID315463181 | -0.19 |
| ZNF804B | SID315463181 | 1.64 |
| ANO1 | SID315457410 | -0.55 |
| ANO1 | SID315457410 | -0.66 |
| ANO1 | SID315457410 | -1.34 |
| ANO1 | SID315457410 | -0.32 |
| RPP40 | SID315454370 | -1.66 (active) |
| RPP40 | SID315454370 | -0.84 |
| RPP40 | SID315454370 | -0.95 |
| RPP40 | SID315454370 | -0.47 |
| GDPGP1 | SID315464653 | 0.65 |
| GDPGP1 | SID315464653 | 0.2 |
| GDPGP1 | SID315464653 | -0.17 |
| GDPGP1 | SID315464653 | 0.35 |
| SEC23B | SID315454128 | -0.89 |
| SEC23B | SID315454128 | -1.15 |
| SEC23B | SID315454128 | -1.02 |
| FOXG1 | SID315448706 | -0.56 |
| FOXG1 | SID315448706 | -0.5 |
| FOXG1 | SID315448706 | 1.02 |
| FOXG1 | SID315448706 | 0 |
| NOX3 | SID315456325 | 0.01 |
| NOX3 | SID315456325 | 0.93 |
| NOX3 | SID315456325 | 0.05 |
| NOX3 | SID315456325 | 0.84 |
| KCNMB3 | SID315455915 | 1.21 |
| KCNMB3 | SID315455915 | 1.33 |
| KCNMB3 | SID315455915 | 2.55 |
| KCNMB3 | SID315455915 | 1.61 |
| LEFTY2 | SID315451851 | 0.54 |
| LEFTY2 | SID315451851 | 1.09 |
| LEFTY2 | SID315451851 | 0.23 |
| LEFTY2 | SID315451851 | 0.25 |
| EIF3K | SID315456038 | -0.81 |
| EIF3K | SID315456038 | -0.13 |
| EIF3K | SID315456038 | -0.2 |
| EIF3K | SID315456038 | -0.27 |
| MSX2 | SID315450051 | -0.75 |
| MSX2 | SID315450051 | -0.47 |
| MSX2 | SID315450051 | -1.33 |
| MSX2 | SID315450051 | -1.04 |
| EPHX4 | SID315463413 | -0.33 |
| EPHX4 | SID315463413 | 0.86 |
| EPHX4 | SID315463413 | 0.2 |
| EPHX4 | SID315463413 | 0.47 |
| ZBED4 | SID315453648 | -0.47 |
| ZBED4 | SID315453648 | 0.76 |
| ZBED4 | SID315453648 | -0.35 |
| ZBED4 | SID315453648 | -0.15 |
| LIMA1 | SID315456730 | 0.4 |
| LIMA1 | SID315456730 | 1.9 |
| LIMA1 | SID315456730 | 0.29 |
| LIMA1 | SID315456730 | 1.86 |
| TMEM183BP | SID315465157 | -0.43 |
| TMEM183BP | SID315465157 | 0.04 |
| TMEM183BP | SID315465157 | -0.3 |
| TMEM183BP | SID315465157 | -0.08 |
| TMPRSS13 | SID315460156 | -0.58 |
| TMPRSS13 | SID315460156 | -0.77 |
| TMPRSS13 | SID315460156 | -1.02 |
| TMPRSS13 | SID315460156 | -0.19 |
| NCOA1 | SID315452715 | -0.36 |
| NCOA1 | SID315452715 | -0.28 |
| NCOA1 | SID315452715 | -0.4 |
| NCOA1 | SID315452715 | 0.17 |
| GATA2 | SID315448844 | -0.5 |
| GATA2 | SID315448844 | 0.06 |
| GATA2 | SID315448844 | -0.19 |
| GATA2 | SID315448844 | 0.84 |
| BORA | SID315459522 | 0.88 |
| BORA | SID315459522 | -0.32 |
| BORA | SID315459522 | 6.53 (active) |
| BORA | SID315459522 | -0.56 |
| SCD | SID315451304 | -0.75 |
| SCD | SID315451304 | 0.7 |
| SCD | SID315451304 | -1.34 |
| SCD | SID315451304 | 0.76 |
| C6orf62 | SID315459933 | 0.48 |
| C6orf62 | SID315459933 | 0.64 |
| C6orf62 | SID315459933 | 0.72 |
| C6orf62 | SID315459933 | 0.56 |
| CD207 | SID315456322 | -1.38 |
| CD207 | SID315456322 | -1.01 |
| CD207 | SID315456322 | -0.77 |
| CD207 | SID315456322 | -1.15 |
| ASMT | SID315447430 | 0.86 |
| ASMT | SID315447430 | 0.5 |
| ASMT | SID315447430 | 1.2 |
| ASMT | SID315447430 | 0.9 |
| TRMT13 | SID315457032 | 0.68 |
| TRMT13 | SID315457032 | 0.46 |
| TRMT13 | SID315457032 | 0.29 |
| TRMT13 | SID315457032 | -0.24 |
| RBP5 | SID315460085 | 0.97 |
| RBP5 | SID315460085 | 0.2 |
| RBP5 | SID315460085 | -1.05 |
| RBP5 | SID315460085 | -0.7 |
| CPPED1 | SID315457585 | 2.23 |
| CPPED1 | SID315457585 | 2.22 |
| CPPED1 | SID315457585 | 2.41 |
| CPPED1 | SID315457585 | 1.94 |
| EXOSC5 | SID315458157 | -0.95 |
| EXOSC5 | SID315458157 | 0.41 |
| EXOSC5 | SID315458157 | -1.12 |
| EXOSC5 | SID315458157 | -0.25 |
| CBS | SID315447731 | 0.65 |
| CBS | SID315447731 | 1.13 |
| CBS | SID315447731 | 0.93 |
| CBS | SID315447731 | 0.27 |

Reformatted: entries from further up.
target	PubChem SID	TNF reporter robust z-score
EIF3K	SID315456038	-0.27
MSX2	SID315450051	-0.75
MSX2	SID315450051	-0.47
MSX2	SID315450051	-1.33
MSX2	SID315450051	-1.04
EPHX4	SID315463413	-0.33
EPHX4	SID315463413	0.86
EPHX4	SID315463413	0.2
EPHX4	SID315463413	0.47
ZBED4	SID315453648	-0.47
ZBED4	SID315453648	0.76
ZBED4	SID315453648	-0.35
ZBED4	SID315453648	-0.15
LIMA1	SID315456730	0.4
